# “And” between values parts separate entries of the source, which are not always exact repeats. Equal values may be shown once. The list shows a part of the results. Further columns of the screen follow, without active or inactive calls. Compounds called inactive in the main read-out are mostly missing here. For some of these results: The note in brackets gives the kind of curve behind each potency; many fits are weak.
# What was measured:
# [1] = qHTS assay for small molecule antagonists of peroxisome proliferator-activated receptor gamma signaling (AID 588537); conditions: HEK293 PPARg-UAS-bla, beta-lactamase ratio, antagonist mode; measured here: W460 blue channel
# In short: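 PPAR-gamma-UAS-bla HEK293 cells (3000/well, 1% charcoal/dextran-stripped FBS) were preincubated 6-6.5 h at 37 C, given titrated compounds, then stimulated with 50 nM rosiglitazone for 16 h. Beta-lactamase activity was read with CCF4 dye; IC50 came from Hill fits.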
# [2] = qHTS assay for small molecule antagonists of vitamin D receptor signaling (AID 588541); conditions: HEK293T VDR-UAS-bla, beta-lactamase ratio, antagonist mode; measured here: W460 blue channel (cell viability)
# [3] = qHTS assay for small molecule antagonists of retinoid X receptor alpha signaling (AID 588546); conditions: HEK293T RXRa-UAS-bla, beta-lactamase ratio, antagonist mode; measured here: W530 green channel, cytotoxicity proxy;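 further: cells stimulated with 9-cis-retinoic acid as agonist; on the % scale 0 is the no-effect control and ±100 the full control effect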
# In short: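 Beta-lactamase reporter inhibition, read as CCF4 fluorescence ratio (ex 405, em 460/530 nm) after 2 h at RT. HEK293T UAS-bla cells, 2500/well, were stimulated with 9-cis-RA at 500 or 100 nM final alongside test compound for 18 h at 37 C.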
# [4] = qHTS assay for small molecule agonists of retinoid X receptor alpha signaling (AID 588544); conditions: HEK293T RXRa-UAS-bla, beta-lactamase reporter, 18 h; 530 nm emission
# [5] = S16 Schwann cell PMP22 intronic element beta-lactamase assay (AID 624044); conditions: S16 rat Schwann cells, PMP22 element beta-lactamase FRET, 24 h
# In short: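 Rat S16 Schwann cells with beta-Lac driven by a PMP22 intronic element, compound-treated 24 h at 37 °C. LiveBLAzer FRET B/G read: 460 nm normalized to potassium clavulanate vs DMSO; 535 nm FRET as viability; concentration-effect curves classified.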
# [6] = measured here: 460 nm blue channel
# [7] = measured here: 530 nm viability channel
compound,measurement,setting,value
N#Cc1c(Cl)cccc1Cl,AC50,[1],"0.00158 µM [falling, full curve, poor fit]"
ClCc1ccccc1,AC50,[1],"44.7 µM [rising, single point]"
CCC(C)(C)c1cc(-n2nc3ccccc3n2)c(O)c(C(C)(C)CC)c1,AC50,[1],"0.00112 µM [falling, full curve, poor fit]"
CCN(CC)c1ccccc1,AC50,[1],"63.1 µM [rising, single point]"
[O-]/[N+](=N\O)c1ccccc1,AC50,[1],"70.8 µM [rising, single point]"
O=C(O)C(F)(F)C(F)(F)C(F)(F)C(F)(F)C(F)(F)C(F)(F)C(F)(F)C(F)(F)F,AC50,[1],"31.6 µM [falling, partial curve, poor fit]"
Cc1cccc2sc3nncn3c12,AC50,[1],"0.0178 µM [falling, full curve, poor fit]"
C#CCC1=C(C)[C@H](OC(=O)[C@H]2[C@H](C=C(C)C)C2(C)C)CC1=O,AC50,[1],"31.6 µM [falling, partial curve, poor fit]"
CCNc1nc(NC(C)C)nc(OC)n1,AC50,[1],"0.00178 µM [falling, full curve, poor fit]"
COC(=O)NC(=S)Nc1ccccc1NC(=S)NC(=O)OC,AC50,[1],"0.00316 µM [falling, full curve, poor fit]"
c1ccc(N=Nc2ccccc2)cc1,AC50,[1],"50.1 µM [rising, single point]"
COP(N)(=O)SC (stereo not given),AC50,[1],"1.26 nM [falling, full curve, poor fit] and 794 µM [falling, partial curve, poor fit]"
CCCCCl,AC50,[1],"50.1 µM [rising, single point]"
COP(=O)(OC)Oc1ccc([N+](=O)[O-])cc1,AC50,[2],"35.5 µM [falling, partial curve, poor fit]"
same,max response,[3],-9.1%
CC(C)(COCC1CO1)COCC1CO1 (stereo not given),AC50,[1],"50.1 µM [rising, single point]"
same,max response,[4],39.9%
CCCN(CCC)c1c([N+](=O)[O-])cc(C(F)(F)F)c(N)c1[N+](=O)[O-],AC50,[1],"0.0316 µM [falling, full curve, poor fit]"
same,max response,[4],5.14%
Oc1ccc(Cl)cc1Cc1ccccc1,AC50,[1],"50.1 µM [rising, single point]"
same,max response,[3],-13%
OCC1CO1 (stereo not given),AC50,[1],"50.1 µM [rising, single point]"
same,max response,[4],-17.9%
CCC(C)(NC(=O)c1cc(Cl)c(C)c(Cl)c1)C(=O)CCl (stereo not given),AC50,[1],"63.1 µM [falling, partial curve, poor fit]"
same,max response,[4],37%
same,max response,[3],9.98%
CCOP(=S)(OCC)SCCl,AC50,[1],"0.00126 µM [falling, full curve, poor fit]"
same,max response,[4],9.99%
same,max response,[3],-14%
ClC=C(Cl)Cl,AC50,[1],"0.0141 µM [falling, full curve, poor fit]"
same,max response,[4],-15.3%
same,AC50,[5]; [6],"25.1 µM [rising, single point]"
COc1cc(OC)c(OC)cc1C=O,AC50,[1],"50.1 µM [rising, single point]"
same,max response,[4],22%
O=P(OCC(Br)CBr)(OCC(Br)CBr)OCC(Br)CBr (stereo not given),AC50,[1],"44.7 µM [falling, partial curve, poor fit]"
same,max response,[4],-21.8%
same,max response,[3],17%
CCC(C)c1cc([N+](=O)[O-])cc([N+](=O)[O-])c1O (stereo not given),AC50,[1],"28.2 µM [falling, partial curve, poor fit]"
same,max response,[4],8.87%
CC[n+]1c(-c2ccccc2)c2cc(N)ccc2c2ccc(N)cc21,AC50,[1],"28.2 µM [falling, partial curve, poor fit]"
same,max response,[4],-2.74%
same,AC50,[5]; [6],"1.26 µM [falling, full curve, poor fit] and 6.31 µM [falling, partial curve, poor fit]"
same,AC50,[5]; [7],"1.26 µM [falling, full curve]"
COC(=O)c1c(C(F)F)nc(C(F)(F)F)c(C2=NCCS2)c1CC(C)C,AC50,[1],"0.0355 µM [falling, full curve, poor fit]"
same,max response,[4],10.6%
Nc1ccc(-c2ccc(N)c(Cl)c2)cc1Cl,AC50,[1],"44.7 µM [falling, partial curve, poor fit]"
same,max response,[4],7.36% and 16.6%
CCOC(=O)C(C)OC(=O)c1cc(Oc2ccc(C(F)(F)F)cc2Cl)ccc1[N+](=O)[O-] (stereo not given),AC50,[1],"44.7 µM [falling, partial curve]"
same,max response,[4],20.8%
same,max response,[3],6.04%
CC(C)N(C(=O)COc1nnc(C(F)(F)F)s1)c1ccc(F)cc1,AC50,[1],"39.8 µM [falling, partial curve, poor fit]"
same,max response,[4],-2.82%
same,max response,[3],15.5%
Oc1cc(Cl)c(Cl)cc1Cl,AC50,[1],"44.7 µM [falling, partial curve, poor fit]"
same,max response,[4],-14%
Cc1ccc(N=CN(C)C=Nc2ccc(C)cc2C)c(C)c1,AC50,[1],"0.0224 µM [falling, full curve, poor fit]"
same,max response,[4],8.14%
O=C(Nc1ccccc1)Nc1cnns1,AC50,[1],"50.1 µM [falling, single point]"
same,max response,[4],8.63%
CC(C)(C)C(O)C(Oc1ccc(-c2ccccc2)cc1)n1cncn1 (stereo not given),AC50,[1],"35.5 µM [falling, partial curve, poor fit]"
same,max response,[4],38%
same,max response,[3],-0.123%
CCOP(=O)(OCC)O/C(=C/Cl)c1ccc(Cl)cc1Cl,AC50,[1],"0.0447 µM [falling, full curve, poor fit]"
same,max response,[4],15.3%
same,AC50,[5]; [6],"0.0562 µM [falling, full curve, poor fit]"
CCC[CH2][Sn]([CH2]CCC)([CH2]CCC)[O]C(=O)c1ccccc1,AC50,[1],"4.47 µM [falling, full curve]"
same,max response,[4],-51.6%
same,max response,[3],-38.6%
O=[N+]([O-])c1ccc(Nc2ccccc2)cc1,AC50,[1],"35.5 µM [falling, partial curve, poor fit]"
same,max response,[4],10.9%
CS/C(C)=N/OC(=O)N(C)SN(C)C(=O)O/N=C(\C)SC,AC50,[1],"0.00126 µM [falling, full curve, poor fit]"
same,max response,[4],43%
O=P(Oc1ccccc1)(Oc1ccccc1)Oc1ccccc1,AC50,[1],"31.6 µM [falling, partial curve, poor fit]"
same,max response,[4],2.99%
Cc1cc(Cl)ccc1OCC(=O)O,AC50,[1],"0.00126 µM [falling, full curve, poor fit]"
same,max response,[4],18.3%
c1ccc(Nc2ccc3ccccc3c2)cc1,AC50,[1],"50.1 µM [rising, single point]"
same,max response,[4],6.5% and 2.74%
Cc1ccc(OP(=O)(Oc2ccc(C)cc2)Oc2ccc(C)cc2)cc1,AC50,[1],"50.1 µM [rising, single point]"
same,max response,[4],1.29%
CCCN(CCOc1c(Cl)cc(Cl)cc1Cl)C(=O)n1ccnc1,AC50,[1],"50.1 µM [falling, partial curve, poor fit]"
same,max response,[4],17.3% and 17.4%
same,max response,[3],-19.8% and -2.15%
Oc1ccc(C(c2ccc(O)cc2)(C(F)(F)F)C(F)(F)F)cc1,AC50,[1],"0.00158 µM [falling, full curve, poor fit]"
same,max response,[4],3.87%
same,max response,[3],-0.293%
NS(=O)(=O)C(F)(F)C(F)(F)C(F)(F)C(F)(F)C(F)(F)C(F)(F)C(F)(F)C(F)(F)F,AC50,[1],"50.1 µM [falling, partial curve, poor fit]"
same,max response,[4],-0.516%
Clc1cc(Cl)c(-c2cc(Cl)c(Cl)cc2Cl)cc1Cl,AC50,[1],"44.7 µM [rising, partial curve, poor fit]"
same,max response,[4],9.66% and 21.1%
same,max response,[3],12.5%
CC(C)=C[C@@H]1[C@@H](C(=O)OCN2C(=O)C3=C(CCCC3)C2=O)C1(C)C,AC50,[1],"3.55 µM [falling, partial curve, poor fit]"
same,max response,[4],8.21%
Nc1ccc(Cc2ccc(N)c(Cl)c2)cc1Cl,AC50,[1],"14.1 µM [falling, full curve, poor fit]"
same,max response,[4],1.97%
O=C(O)COc1ccccc1,AC50,[1],"70.8 µM [rising, single point]"
same,max response,[4],41.2%
CCc1cccc(C)c1N(C(=O)CCl)C(C)COC (stereo not given),AC50,[1],"31.6 µM [falling, partial curve, poor fit]"
same,max response,[4],14.3%
c1ccc(N=NNc2ccccc2)cc1,AC50,[1],"35.5 µM [falling, partial curve, poor fit]"
same,max response,[4],6.83%
same,max response,[3],-8.26%
COP(=S)(OC)Oc1ccc(Sc2ccc(OP(=S)(OC)OC)cc2)cc1,AC50,[1],"35.5 µM [falling, partial curve, poor fit]"
same,max response,[4],20.2%
same,AC50,[5]; [6],"5.01 µM [falling, full curve, poor fit]"
Oc1ccccc1,AC50,[1],"50.1 µM [rising, single point] and 28.2 nM [falling, full curve, poor fit]"
same,max response,[4],-9.61%
CCCOCC(=Nc1ccc(Cl)cc1C(F)(F)F)n1ccnc1,AC50,[1],"22.4 µM [falling, partial curve, poor fit]"
same,max response,[3],3.36%
CCOCN(C(=O)CCl)c1c(C)cccc1CC,AC50,[1],"20 µM [falling, partial curve, poor fit]"
same,max response,[4],40.6% and 39.9%
same,max response,[3],38.2% and 26.8%
O=C(O)c1ccccc1Nc1cccc(C(F)(F)F)c1,AC50,[5]; [6],"25.1 µM [rising, partial curve]"
CC(C)=CC1C(C(=O)OCc2coc(Cc3ccccc3)c2)C1(C)C (stereo not given),AC50,[5]; [6],"12.6 µM [falling, single point]"
C[C@H](CCCC(C)(C)O)[C@H]1CC[C@H]2[C@@H]3CC=C4C[C@@H](O)CC[C@]4(C)[C@H]3CC[C@]12C,AC50,[5]; [7],"11.2 µM [rising, partial curve]"

# Random excerpt: 5 entries already listed.
compound,measurement,setting,value
CC(C)=C[C@@H]1[C@@H](C(=O)OCN2C(=O)C3=C(CCCC3)C2=O)C1(C)C,max response,[4],8.21%
CCOC(=O)C(C)OC(=O)c1cc(Oc2ccc(C(F)(F)F)cc2Cl)ccc1[N+](=O)[O-] (stereo not given),max response,[3],6.04%
NS(=O)(=O)C(F)(F)C(F)(F)C(F)(F)C(F)(F)C(F)(F)C(F)(F)C(F)(F)C(F)(F)F,AC50,[1],"50.1 µM [falling, partial curve, poor fit]"
Oc1ccc(C(c2ccc(O)cc2)(C(F)(F)F)C(F)(F)F)cc1,max response,[3],-0.293%
CCOCN(C(=O)CCl)c1c(C)cccc1CC,max response,[3],38.2% and 26.8%
